Reference: patent US10617701B2, “Nutritional compositions containing phosphatidylethanolamine, sphingomyelin and docosahexaenoic acid” (Mead Johnson Nutrition Company, priority 2015, dated 2020)
At least one compound was matched to its structure with a doubt left.

Tested on: embryonic mouse cortical cells
Test: Functional neuronal maturation of cortical networks on microelectrode arrays (MEA recording, chronic treatment)
Format: cell-based
Conditions: repeated treatment 2x per week; DHA 20 μM, PE 100 nM, LF 300 nM, SM 100 nM; recorded at 7-10, 14, 21 and 28 div; FIG. 2
Description: Cortical cells were grown on multi-well microelectrode arrays (MEAs) and treated with 10 different experimental series, including different combinations of test agents (PE, SM, LF and DHA) and the activity was recoded at 4 different time points during the 4 weeks of functional neuronal maturation Cells growing on glass slides were treated in parallel for morphological and cell population analysis. These experiments aimed to elucidate whether the test compounds affect the functional and morphological neuronal maturation […] (see FIG. 1). […]
Primary cell culture for MEA recordings: In brief, frontal cortex tissue was harvested from embryonic day […] NMRI mice. […] Cultures on MEAs were incubated at 37° C. in a 10% CO2 atmosphere until ready for use, which usually is four weeks to three months after seeding. […]
Multichannel Recording: After establishing a stable activity pattern after 4 weeks, the neuronal networks on MEA chips are employed for substance testing. […] The signals routinely recorded by these neurochips are located in a range of 15-1800 […] . […]

CC/C=C\C/C=C\C/C=C\C/C=C\C/C=C\C/C=C\CCC(=O)O [DHA, Docosahexaenoic acid]
developmental halt at later stages: developmental halt at later stages
